# In PubChem BioAssay (Tox21):
# Values joined by “and” are separate entries in the source; they are usually repeats but may differ in a detail not shown here. Equal values may be shown once. The inconclusive results got no clear call from the source; some entries with a clear call stand among them for comparison. A potency beside an inconclusive call is a rough fit, not a confirmed value. Active and inactive are the calls of the source. Calls follow the shape of the full dose curve.
# Assay: p53 small molecule agonists, cell-based qHTS assay with human liver microsomes (AID 1963577)
# Conditions: HCT-116 p53RE-bla with human liver microsomes, ratio, 16 h; activation: at 66 µM (top of the series) unless noted
# Procedure, shortened: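 p53RE-bla reporter cells were pre-incubated 5 h at 37 C, then treated with compounds plus human liver microsomes (0.5 mg/mL final) and NADPH (0.5 mg/mL final) for 16 h at 37 C. Beta-lactamase activity was read by LiveBLAzer fluorescence after 2 h at room temperature.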
# % is scaled to controls: 0 for no effect and ±100 for the full control effect; potency is read from the fitted curve at half-maximal effect.
Compound,Potency,activation
C=CCC1(C(C)CC)C(=O)NC(=O)NC1=O (centres undefined),"inconclusive: 8.9 µM [rising, single point]",–
CN1CC[C@]23c4c5ccc(O)c4O[C@H]2[C@@H](O)CC[C@H]3[C@H]1C5,inactive,–
CC1N=C(N)OC1c1ccccc1 (centres undefined),–,inconclusive: 7.89%
O=[N+]([O-])c1ccccc1O,inactive,–
O=C1OC(c2ccc(O)c(S(=O)(=O)O)c2)(c2ccc(O)c(S(=O)(=O)O)c2)c2c(Br)c(Br)c(Br)c(Br)c21,"inconclusive: 14.1 µM [fluorescent, partial curve]",–
CC(C)(O)C(Cl)(Cl)Cl,inactive,–
N#Cc1ccc(N(CC(N)=O)CC(F)(F)F)cc1C(F)(F)F,inactive,–
OCCCCO,inconclusive: 51.6 µM [activator],–
C=CC(=O)OC,inactive,–
CCN(CC)N=O,inactive,–
CCN[C@@H](C)Cc1ccccc1,inactive,–
CC(C)N(Cc1ccccc1)C(=O)C(C)(C)C,–,inconclusive: 12.9%

# Quoted from the listing.
# Value for CCN(CC)N=O under Potency: inactive
# Value for O=C1OC(c2ccc(O)c(S(=O)(=O)O)c2)(c2ccc(O)c(S(=O)(=O)O)c2)c2c(Br)c(Br)c(Br)c(Br)c21 under Potency: inconclusive: 14.1 µM [fluorescent, partial curve]
# Value for CCN[C@@H](C)Cc1ccccc1 under Potency: inactive
# Value for C=CCC1(C(C)CC)C(=O)NC(=O)NC1=O (centres undefined) under Potency: inconclusive: 8.9 µM [rising, single point]

# Assay: p53 small molecule agonists, cell-based qHTS assay with rat liver microsomes (AID 1963578)
# Conditions: HCT-116 p53RE-bla, beta-lactamase ratio, 16 h; activation: at 66 µM (top of the series) unless noted
# Procedure, shortened: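 p53RE-bla cells were exposed to compounds together with rat liver microsomes (0.5 mg/mL final) and NADPH (0.5 mg/mL final) for 16 h at 37 C, then read by LiveBLAzer beta-lactamase fluorescence after 2 h at room temperature.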
Compound,Potency,activation
CN(C)[C@@H]1C(=O)C(C(N)=O)=C(O)[C@@]2(O)C(=O)C3=C(O)c4c(O)cccc4[C@@](C)(O)[C@H]3C[C@@H]12,"inconclusive: 36.5 µM [rising, partial curve] and inconclusive: 19.9 µM [rising, partial curve]",–
C=CC[C@]1(O)CC[C@H]2[C@@H]3CCC4=CC(=O)CCC4=C3C=C[C@@]21C,inconclusive: 22.3 µM [fluorescent],–
Cc1cc(Cl)ccc1OCC(=O)O,"inconclusive: 40.5 µM [fluorescent, partial curve]",–
C[C@H]1O[C@H](OC2[C@@H](O)[C@@H](O)C(O)[C@H](O)[C@H]2O)[C@@H](N)C[C@@H]1N=C(N)C(=O)O (some centres undefined),inactive,–
CCCCCCCCn1sccc1=O,"inconclusive: 38.1 µM [activator, single point]",–
O=P(OCCCl)(OCCCl)OCCCl,–,inconclusive: 15.6%
ClC(Cl)C(Cl)Cl,"inconclusive: 18.4 µM [activator, single point]",–
ClC(Cl)(Cl)c1ccccc1,"inconclusive: 18.2 µM [activator, full curve]",–
CC(C)c1ccc(OP(=O)(Oc2ccc(C(C)C)cc2)Oc2ccc(C(C)C)cc2)cc1,inconclusive: 14.1 µM [fluorescent] and inconclusive: 11.5 µM [fluorescent] and inconclusive: 17.6 µM [fluorescent],–
COc1ccc(-c2ccccc2)cc1NNC(=O)OC(C)C,inactive,–
CC(C)[C@H](C(=O)O[C@H](C#N)c1cccc(Oc2ccccc2)c1)c1ccc(Cl)cc1,–,inconclusive: 15.9%
CCCCC(CC)COC(=O)OOC(C)(C)C (centres undefined),"inconclusive: 18.2 µM [rising, single point]",–
N#C/C=C/C#N,"inconclusive: 0.0677 µM [activator, single point]",–
CCSC(=O)N1CCCCCC1,active: 4.99 µM and active: 2.57 µM,–
O=C(O)C1C(C(=O)O)C2(Cl)C(Cl)=C(Cl)C1(Cl)C2(Cl)Cl (centres undefined),inactive,–
CCOP(=O)(OCC)O/C(=C/Cl)c1ccc(Cl)cc1Cl,"inconclusive: 16.2 µM [fluorescent, partial curve]",–
CN(C)c1ccc(N=O)cc1,"inconclusive: 51.3 µM [rising, single point]",–
COP(N)(=O)SC (centres undefined),"inconclusive: 8.01 µM [fluorescent, full curve] and inconclusive: 18.1 µM [fluorescent, partial curve]",–
CCOP(=S)(OCC)Oc1cnc2ccccc2n1,"inconclusive: 1.29 µM [fluorescent, full curve]",–
Cn1cc(-c2ccccc2)c(=O)c(-c2cccc(C(F)(F)F)c2)c1,"inconclusive: 50.1 µM [activator, single point]",–
CCOP(=S)(OCC)Oc1ccc2c(C)c(Cl)c(=O)oc2c1,"inconclusive: 1.16 µM [fluorescent, full curve] and inconclusive: 145 nM [fluorescent, full curve]",–
ClCCOCCCl,inactive,–
Cc1ccc(OP(=O)(Oc2ccc(C)cc2)Oc2ccc(C)cc2)cc1,"inconclusive: 11.5 µM [fluorescent] and inconclusive: 7.25 µM [activator, full curve]",–
O=C(O)CCCOc1ccc(Cl)cc1Cl,inconclusive: 46.6 µM [fluorescent],–
O=C(Nc1ccc2[nH]ccc2c1)c1cc2cc(F)ccc2n1Cc1cccc(F)c1,inactive,–
CNC(=O)O/N=C(\C)SC,"inconclusive: 14.5 µM [fluorescent, full curve, poor fit]",–
CC(=O)/C=C/c1ccc2c(c1)OCO2,"inconclusive: 51.6 µM [activator, single point]",–
